Test results: patent publication US5648336A (University of Colorado, priority 1994, dated 1997)

Amino acid sequences for entries named in this document (tags omitted).
UniProt P30411, whole entry: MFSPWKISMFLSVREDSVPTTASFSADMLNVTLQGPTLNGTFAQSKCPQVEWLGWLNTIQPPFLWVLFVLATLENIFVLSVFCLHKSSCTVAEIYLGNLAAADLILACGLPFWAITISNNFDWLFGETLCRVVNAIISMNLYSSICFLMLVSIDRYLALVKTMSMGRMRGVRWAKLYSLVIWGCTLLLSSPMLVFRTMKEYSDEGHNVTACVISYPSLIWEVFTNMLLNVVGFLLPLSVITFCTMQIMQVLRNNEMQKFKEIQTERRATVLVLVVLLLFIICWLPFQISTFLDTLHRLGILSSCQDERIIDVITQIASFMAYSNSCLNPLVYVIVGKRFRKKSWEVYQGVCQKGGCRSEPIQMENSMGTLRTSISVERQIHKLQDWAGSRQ

Columns and labels:
[1] = molecular target: B2 receptor (Homo sapiens, UniProt P30411); assay: cell-based
[2] = tested on: isolated rat uterus
Text: A change of one unit of pA2 value represents an order of magnitude change in potency.
On isolated smooth muscles, agonist potency is given as percent of BK potency; antagonist potency is given as pA2, and is underlined. In blood pressure assays, the number is the dose of peptide in micrograms that causes 50% reduction in the effect of BK intraarterially administered as a bolus mixture in a 500 g male rat; Ag indicates unquantitated agonist activity; Ant indicates unquantitated antagonist activity.

`N=C(N)NCCC[C@@H](N)C(=O)N[C@@H](CCCNC(=N)N)C(=O)N1CCC[C@H]1C(=O)N1C[C@H](O)C[C@H]1C(=O)NCC(=O)N[C@@H](Cc1cccs1)C(=O)N[C@@H](CO)C(=O)N[C@@H](C(=O)N1[C@H](C(=O)N[C@@H](CCCNC(=N)N)C(=O)O)C[C@@H]2CCCC[C@@H]21)C1Cc2ccccc2C1` [Compound 7, DArg-Arg-Pro-Hyp-Gly-Thi-Ser-DIglb-Oic-Arg] was tested. Which Kb [1] did it give?
Its Kb is 16.2 nM.

What about the “Uterus Activity, antagonist potency given as pA2” value [2] of the same compound?
Its value is 7.8.
